Results: article doi:10.64898/2025.12.05.692677

Biological target: KOG1-FLAG (Neurospora crassa) (UniProt Q7SI31)
Test: affinity purification with mass spectrometry

binding | Substance
binds | LST8 (NCU04281) (from UniProt Q1K788)
binds | Serine/Threonine protein kinase TOR (NCU05608) (from UniProt Q7S6V7) (enzyme)

Substance | binding
TCO89 (NCU04795) (from UniProt Q7S6P0) | binds

No constants are given. Whether binding was seen depends on the method and setting. Binding seen in cells or lysates may run through a third protein. Here binding means that the protein was enriched with, or labelled near, the bait; the list need not be complete.
